From CN117247456A come the findings set out here.

The chains behind the UniProt entries cited, without tags or fusion partners. Where a name states a change or a piece, a line headed by the entry shows the natural chain unless it says otherwise. A line that says so, or that is headed by a name, gives the form on record, which may keep a tag or linker.
重组人VEGF-His (P15692, form named): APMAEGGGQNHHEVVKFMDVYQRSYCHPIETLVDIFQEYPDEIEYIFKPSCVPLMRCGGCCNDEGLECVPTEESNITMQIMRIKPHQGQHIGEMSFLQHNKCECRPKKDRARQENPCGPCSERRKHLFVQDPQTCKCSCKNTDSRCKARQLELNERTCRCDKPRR

Results are given in words; binding and its absence hold for the method and conditions named. Some entries that bind do so weakly or less than the wild type.

This test concerns the target 重组人VEGF-His (human) (UniProt P15692). In words: SPR, Biacore T200, VEGF-His as analyte (reference antibody). A general note: SPR reads the build-up and loss of mass on a sensor chip optically.

B1: 抗人VEGF抗体P30-10-26 (antibody, V domains shown, not shown: a dimerising Fc or GST)
VH: EVQLVESGGGLVQPGGSLRLSCAASGFGLDYYAIGWFRQAPGKEREGVSCIGSSSKETNYADSVKGRFTISRDNAKNTVYLQMNSLRAEDTAVYYCTAGSPLCLISLQDHYGLYEYDYWGQGTLVTVSS
Regarding B1, the binding result is listed as “binds”.
